These are yes or no findings as the source states them, for the method shown. Some entries that bind do so weakly or less than the wild type.
biological target: ErbB3 (UniProt P21860); experiment: MRD screen, Example 48

Chains of the proteins cited; added tags and fusions are not shown. Residues count along the entry.
UniProt P21860, residues 20-643: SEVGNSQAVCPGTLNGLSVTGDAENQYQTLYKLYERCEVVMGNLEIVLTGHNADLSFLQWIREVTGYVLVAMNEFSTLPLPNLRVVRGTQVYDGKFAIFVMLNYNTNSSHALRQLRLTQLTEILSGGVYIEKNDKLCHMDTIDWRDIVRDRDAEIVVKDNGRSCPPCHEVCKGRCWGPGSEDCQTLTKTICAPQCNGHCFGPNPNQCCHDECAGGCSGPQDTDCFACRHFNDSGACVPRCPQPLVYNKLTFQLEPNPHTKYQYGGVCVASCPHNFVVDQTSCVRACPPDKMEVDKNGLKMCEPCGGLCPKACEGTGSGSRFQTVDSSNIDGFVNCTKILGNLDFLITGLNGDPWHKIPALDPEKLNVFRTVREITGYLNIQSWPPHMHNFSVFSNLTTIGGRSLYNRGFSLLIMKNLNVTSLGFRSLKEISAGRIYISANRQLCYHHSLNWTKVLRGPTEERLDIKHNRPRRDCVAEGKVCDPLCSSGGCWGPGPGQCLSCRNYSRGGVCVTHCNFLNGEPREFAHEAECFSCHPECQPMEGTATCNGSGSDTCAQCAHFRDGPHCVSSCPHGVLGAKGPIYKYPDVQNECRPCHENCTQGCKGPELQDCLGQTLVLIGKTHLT
UniProt P05231, residues 30-212: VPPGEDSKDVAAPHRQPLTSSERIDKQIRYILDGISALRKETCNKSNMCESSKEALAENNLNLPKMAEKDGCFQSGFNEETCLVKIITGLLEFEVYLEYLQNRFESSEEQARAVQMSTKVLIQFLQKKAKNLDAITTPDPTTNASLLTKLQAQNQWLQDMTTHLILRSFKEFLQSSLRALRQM

binding | Binder
binds | WHCQWFWVHEWGAWNEFCVM [EGC1063]
binds | WQCEWEWVQEWGAWDEFCVM [EGC1066]
binds | GRCRGYEVDPWWHAPCFCDL [EGC1074]
binds | PKVRCPFQNPIWWSHCMKIL [EGC1073]
binds | LGEPYCPFLNPYWYDQCMSRT [EGC1084]
binds | WHCEWQWVQEWGAWDEFCVM [EGC1072]
binds | EGC1085 (peptide) peptide: ASSETYCPFLNPYWYDQCMSRTSGGGSGGGSQAAAGGSYMHEPHMQVLEIMN
binds | ILCQHFQQQPVWYQACIR [EGC1075]
binds | LGEPYCPFLNPFWYDQCIARN [EGC1083]
binds | DQVKCPFQNPVWWSHCMYLL [EGC1070]
binds | WNEPYCPFLNPTWKAQCIARI [EGC1082]

biological target: IL6 (UniProt P05231); experiment: MRD identification, Example 48

binding | Binder
binds | ECLWTSLECEGQAG [ILB151]
binds | VCIPMATMCIGQAG [ILB158]
binds | RCSIWKVYAMCM [ILB148]
binds | WCLAGHVYCQGQAG [ILB130]
binds | PCPGFPPPMLCMGQAG [ILB139]
binds | ACMLKTHRCKGPGR [ILB146]
binds | VWTAFIQMNS [ILB73]
binds | WYHWMKEHMWGQAG [ILB88]
binds | HSFVYMHWFL [ILB99]
binds | FQESWSTWVEGQAG [ILB71]
binds | RYMHMVWQHI [ILB96]
binds | VCKWKQEYCKGQAG [ILB87]
binds | DEIPLWEFQF [ILB69]
binds | KCTHLPFQRNCSGQAG [ILB142]
binds | SLFMPQHNVHGQAG [ILB106]
binds | GCWWVATECWGQAG [ILB114]
binds | FCIYYHNHMIWGQACQAGRCGSYCWWQDYAYKVGQAG [ILB77]
binds | RWHYWHQHWWGQAG [ILB84]
binds | QRMEKFMHGS [ILB59]
binds | ICVASICGLVC [ILB82]

binding | Binder
binds | IWHVFYMVQAGQAG [ILB94]
binds | WPSWTYWYHF [ILB91]
binds | FCHHWRPVCLGQAG [ILB143]
binds | MQGWLWAKWW [ILB102]
binds | YWPSLEWDWS [ILB107]
binds | HQLQPYIQDL [ILB128]
binds | IYAWWKWHWFGQAG [ILB104]
binds | PMTMWWFFWKGQAG [ILB98]
binds | YMFHWPLFWLGQAG [ILB101]
binds | PCMRDWWMCGGQAG [ILB140]
binds | YFWHSLKTMM [ILB65]
binds | MLDWVGRRPF [ILB60]
binds | PWTYNWPWFM [ILB92]
binds | WPMITWLGWYGQAG [ILB100]
binds | TMQPHHIYGYGQAG [ILB105]
binds | HHHKMWPQNKSADSHAYTMM [ILB89]
binds | ECTHPVFVRPCWGQAG [ILB75]
binds | GVLKSGFRSLRCMARP [ILB135]
binds | GCTWLIDICTGQAG [ILB122]
binds | MWMYGWWWAG [ILB76]

From patent US20160046678A1 (ZYNGENIA, published 2016)
